Over roughly 33,000 sequences, “E-score (-0.5 to 0.5)” has its median near -0.015; the highest 2% begin near 0.3. The list shows a part of the results.
molecular target: T1, Abf1 (UniProt P14164); assay: PBM E-score (8-mer binding enrichment) (E-score (-0.5 to 0.5)); higher = stronger / more preferred TF binding; conditions: protein concentration: 200 nM; construct: GST-full length
T1 sequence: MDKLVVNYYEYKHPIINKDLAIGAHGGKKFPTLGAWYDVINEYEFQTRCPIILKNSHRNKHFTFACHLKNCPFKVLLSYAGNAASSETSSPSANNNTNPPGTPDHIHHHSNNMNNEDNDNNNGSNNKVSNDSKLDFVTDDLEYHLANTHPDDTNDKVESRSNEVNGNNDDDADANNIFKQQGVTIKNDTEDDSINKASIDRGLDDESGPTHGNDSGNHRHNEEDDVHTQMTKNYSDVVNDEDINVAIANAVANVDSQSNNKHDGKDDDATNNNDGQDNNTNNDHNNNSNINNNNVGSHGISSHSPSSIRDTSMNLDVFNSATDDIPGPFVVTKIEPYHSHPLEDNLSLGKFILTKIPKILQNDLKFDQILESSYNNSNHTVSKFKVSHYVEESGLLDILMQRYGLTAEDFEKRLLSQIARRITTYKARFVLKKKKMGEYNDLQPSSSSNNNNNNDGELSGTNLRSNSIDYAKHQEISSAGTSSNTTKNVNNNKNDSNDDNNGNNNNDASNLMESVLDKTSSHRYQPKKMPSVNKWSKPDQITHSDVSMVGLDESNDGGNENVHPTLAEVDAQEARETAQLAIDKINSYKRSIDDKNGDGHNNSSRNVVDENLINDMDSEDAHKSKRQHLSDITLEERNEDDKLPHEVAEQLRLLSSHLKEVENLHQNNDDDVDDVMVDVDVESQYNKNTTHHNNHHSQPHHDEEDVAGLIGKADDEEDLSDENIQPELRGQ
Outline: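 Full-length yeast transcription factors or their DNA-binding domains, GST-tagged and expressed with PURExpress, were applied at about 100-200 nM to universal all-10-mer Agilent arrays. These arrays had been made double-stranded by primer extension on fresh or once-stripped slides. Detection used fluorescent anti-GST, normalisation used masliner, and E-scores for ungapped eight-base words pooled with reverse complements came from the Universal PBM Analysis Suite.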

| Sequence | PBM E-score |
| --- | --- |
| ACTTACCT | -0.165 |
| CGCCAATA | 0.0937 |
| AGTGAGAC | -0.0345 |
| TCATGGGA | -0.042 |
| CTAGGCGC | -0.152 |
| GAAGTAAA | -0.0612 |
| AACTTGAT | 0.154 |
| GGACGTAC | -0.0265 |
| AGTAGTAT | 0.201 |
| CTATACCA | 0.0431 |
| CGAGTCAG | -0.0718 |
| CAGCTGAG | -0.15 |
| ACAGCAGC | -0.0608 |
| CACTCCAG | 0.00717 |
| ACTGACTC | -0.262 |
| GATCCATA | 0.127 |
| CTGAGGTC | -0.0477 |
| CAAGTGAC | 0.242 |
| CTGGGTTA | -0.201 |
| GAGGTTCC | -0.0902 |
| CCTCTTGC | -0.173 |
| GAACGCCA | 0.121 |
| ACCCGGTA | 0.121 |
| TGCTTGAA | 0.135 |
| AATTAACC | -0.113 |

| Sequence | PBM E-score |
| --- | --- |
| AAAGCTAT | 0.00198 |
| CATAGAGC | -0.173 |
| AATGCACC | 0.0699 |
| CTGGAAGC | -0.207 |
| AAAGGCCA | 0.0628 |
| AGCAACGC | 0.0101 |
| ACATTACA | -0.036 |
| ACCAGTAA | 0.0174 |
| ATACGACA | 0.296 |
| ATAAGAAT | 0.228 |
| TAACTCAA | 0.0402 |
| CCTTGCAG | -0.321 |
| GCGAACAC | -0.139 |
| ATCTGCTG | 0.0114 |
| ATATGCGA | 0.097 |
| GGCCTCAC | -0.0867 |
| AAACTGTG | -0.0181 |
| GATGACAA | 0.369 |
| AGGCGCTC | -0.149 |
| CTCACCTC | -0.0127 |
| CCAGGGGC | -0.331 |
| CTCCCCCA | -0.434 |
| CATTGTGA | 0.0908 |
| CCTCGGGC | -0.189 |
| CCACATTA | -0.0566 |

| Sequence | PBM E-score |
| --- | --- |
| ACGGAGGA | 0.0287 |
| CGCGAGTA | 0.00902 |
| AACGACGG | 0.249 |
| CTTTGTCC | 0.0656 |
| CAGCTCAC | -0.0246 |
| CAATCTGA | -0.0186 |
| CCCGCCCA | -0.209 |
| ACCCCGCC | -0.165 |
| ACCAACAG | -0.186 |
| AACCTGGT | -0.0957 |
| ACCAGGAA | -0.0084 |
| ACACCCCT | -0.297 |
| ACTAGCCT | 0.0918 |
| GGCAGACC | -0.274 |
| GCGTACCA | -0.0406 |
| AGTGGCGC | -0.00387 |
| ACCTTCGT | 0.174 |
| CGTCAGAA | 0.273 |
| CTCTTTCA | -0.214 |
| AGGGTGTG | -0.214 |
| GAGTCGGC | -0.185 |
| CTCCATGC | -0.265 |
| AAATGCTT | -0.0227 |
| AATCCGCC | -0.0359 |
| CCGATCGG | -0.0901 |

| Sequence | PBM E-score |
| --- | --- |
| GTTCGGAA | -0.0956 |
| GGCTAGGA | -0.186 |
| ACGGATGA | 0.18 |
| TCAGCACA | 0.0736 |
| ATCCAGAT | -0.0476 |
| ACGTTAGT | 0.218 |
| CCCCTTCA | -0.243 |
| AAATAGCC | -0.0941 |
| CAGATCCG | -0.136 |
| GGCAGCAC | -0.232 |
| CTTGGAAC | 0.0196 |
| CACAACTG | -0.072 |
| GCGGCGCA | 0.0484 |
| ATTGGTGC | -0.0454 |
| GAACAAGA | 0.102 |
| CTATACAA | 0.00856 |
| TAATAATA | 0.218 |
| GGTCCGGA | -0.131 |
| CGATGTTC | -0.012 |
| TAGGCTCA | -0.177 |
| CAGCACCA | -0.243 |
| CGGAGCGC | -0.166 |
| GTTCTGAA | -0.0245 |
| GAGGAGCA | -0.128 |
| ACTAAGTG | 0.108 |

| Sequence | PBM E-score |
| --- | --- |
| TCTTGACA | 0.0364 |
| CGGTCTAA | -0.103 |
| CGGGCGTA | -0.161 |
| CCAGAACA | -0.113 |
| GCAAAGCC | -0.2 |
| AAAACTAG | -0.0309 |
| ATCGTTTC | 0.325 |
| GCGTTCTA | -0.12 |
| AAAGATGG | 0.00619 |
| CATTATCC | 0.262 |
| CACGGTAC | 0.234 |
| CCTGCACC | -0.268 |
| GAAGTATA | 0.105 |
| GAGCATGA | 0.035 |
| AACCGCTA | -5e-05 |
| CGTCAAAC | 0.0928 |
| AAGTCGAA | -0.139 |
| CGCTGCGC | -0.261 |
| ATCAATAA | 0.127 |
| GCTGTCCA | 0.0906 |
| TCAGTCCA | -0.171 |
| CTTTGAAA | 0.0687 |
| AAGCTAGT | -0.0558 |
| AACCAATT | 0.0773 |
| CCAGTTCC | -0.219 |

An excerpt of these results, tab-delimited:
Sequence	PBM E-score
CAGCTGAG	-0.15
ACAGCAGC	-0.0608
CACTCCAG	0.00717
ACTGACTC	-0.262
GATCCATA	0.127
CTGAGGTC	-0.0477
CAAGTGAC	0.242
CTGGGTTA	-0.201
GAGGTTCC	-0.0902
CCTCTTGC	-0.173
GAACGCCA	0.121
ACCCGGTA	0.121
TGCTTGAA	0.135
AATTAACC	-0.113
AAAGCTAT	0.00198
CATAGAGC	-0.173
AATGCACC	0.0699
CTGGAAGC	-0.207
AAAGGCCA	0.0628
AGCAACGC	0.0101
ACATTACA	-0.036
ACCAGTAA	0.0174
ATACGACA	0.296
ATAAGAAT	0.228
TAACTCAA	0.0402
CCTTGCAG	-0.321
GCGAACAC	-0.139
ATCTGCTG	0.0114
ATATGCGA	0.097
GGCCTCAC	-0.0867
AAACTGTG	-0.0181
GATGACAA	0.369
AGGCGCTC	-0.149
CTCACCTC	-0.0127
CCAGGGGC	-0.331
CTCCCCCA	-0.434
CATTGTGA	0.0908
CCTCGGGC	-0.189
CCACATTA	-0.0566
ACGGAGGA	0.0287
CGCGAGTA	0.00902
AACGACGG	0.249
CTTTGTCC	0.0656
CAGCTCAC	-0.0246
CAATCTGA	-0.0186
CCCGCCCA	-0.209
ACCCCGCC	-0.165
ACCAACAG	-0.186
AACCTGGT	-0.0957
ACCAGGAA	-0.0084
ACACCCCT	-0.297
ACTAGCCT	0.0918
GGCAGACC	-0.274
GCGTACCA	-0.0406

The list continues.

| Sequence | PBM E-score |
| --- | --- |
| CGGCGGCA | -0.051 |
| CGGCAGTC | -0.0776 |
| TATAGCCA | 0.0353 |
| ATCTCGCC | -0.00195 |
| TCCGGCCA | -0.121 |
| ATACGTTG | 0.0885 |
| CGCATCAC | 0.263 |
| AAACCTTT | -0.105 |
| CATGTCGA | -0.00302 |
| TAATTTGA | 0.002 |
| AAAGATCT | -0.0519 |
| TACTTATA | 0.0782 |
| ACTAGTGG | 0.0317 |
| AGTCTGTC | -0.192 |
| AGAGACGG | 0.203 |
| AGGTGTGA | -0.255 |
| CGACGCAA | -0.0887 |
| TCGCCGCA | 0.052 |
| AAGAGGGA | -0.181 |
| ATAGCAAC | -0.0858 |
| CCAGTTTA | -0.172 |
| TAATACCA | 0.244 |
| AGCGTCGG | -0.0578 |
| ACAGAGAG | -0.223 |
| AACTTCTA | 0.123 |

Single values from above.
PBM E-score with ATAGCAAC is entered as -0.0858
PBM E-score with CGTCAAAC is entered as 0.0928
PBM E-score with CTGGAAGC is entered as -0.207

Additional entries follow:

| Sequence | PBM E-score |
| --- | --- |
| CCATGTTA | 0.0249 |
| AGCGATAG | 0.0445 |
| CCTCGTAA | 0.131 |
| ACGAGACC | 0.035 |
| CGCAGGCG | -0.137 |
| AGGACCTA | -0.0385 |
| TAGGCGAA | 0.0221 |
| AATGACAA | 0.397 |
| GCGGTCAC | 0.128 |
| AGGTCACA | -0.0336 |
| AACAACGA | 0.0389 |
| CAGGGCGG | -0.192 |
| AAATCACT | 0.374 |
| ACGCTCCT | -0.0391 |
| CTGTCTCC | -0.079 |
| TACAGGTA | 0.00115 |
| ATGCCATG | 0.159 |
| CATCGCGG | -0.0312 |
| AGCGCATC | 0.00029 |
| TGCTGAAA | -0.101 |
| AGGAATAT | 0.111 |
| GGCGCCCC | -0.281 |
